Measurements as given in patent US20020188202A1, “Method of diagnosis and treatment and related compositions and apparatus” (priority 1996, published 2002).

Tested on: patients with cerebral vasospasm
Test: Vasoactive medications tried on Applicant's patients with vasospasm, monitored by Transcranial Doppler (TCD), exam and symptoms
Conditions: qualitative rating in Applicant's patient population (tend to be the most severe cases)

With `N=C(N)NCCN1CCCCCCC1` [Ismelin, Guanethidine] the “effectiveness in treating the vasospasm” value was “less successful results”.
